Some entries share one result that the patent states for a list of compounds.
Columns and labels:
[1] = target: T1, hEP4 (Homo sapiens, UniProt P35408); assay: hEP4 cAMP assay; type: cell-based; settings: summary in words of Tables 22 to 25
T1 construct: expressed in transfected cells; host or cells: HEK293
Procedure: Experimental Example 1.2: hEP4 cAMP Assay
(§1) HEK293 cells overexpressing hEP4 were cultured in growth medium (GM:MEM (Gibco™, 11095080)/10% HI FBS (Gibco™, 10082147)/1% penicillin/streptomycin). Before the experiment, the growth medium was removed, and starvation medium (HBSS (Gibco™ 14025076)/10% GM) was added. Thereafter, the cells were incubated for 4 hours. HEK293 cells harboring hEP4 were detached from the culture dish with a non-enzymatic cell dissociation buffer (Gibco™, 15040066). The cells were resuspended in assay buffer (AB:HBSS, 0.1% BSA stabilizer, 0.5 mM IBMX, 5 mM HEPES).
(§2) 1,000 cells in 5 μL of AB were seeded per well in a 384 well plate (Corning®, 3570), and stock solutions of test compounds were prepared at a concentration of 1 mM in DMSO and serially diluted in DMSO to the concentration required for the inhibition dose response curve (test concentration range of 10 M-0.001 nM). PGE2 (Sigma, P0409, stock solution: 100 PM) was used as an agonist at a final concentration of 20 nM corresponding to EC50-80. 2.5 μL of the diluted compound and 2.5 μL of PGE2 (20 nM final concentration) were transferred to the assay plate, and then the plate was incubated at room temperature for 18.5 minutes.
(§3) 5 μL of each donor (Eu-cAMP tracer) and acceptor (ULight-anti-cAMP) was added, and the plate was incubated in the dark for 1 hour at room temperature, and then a Varioskan LUX multimode microplate reader was used to obtain the results (excitation: 334 nm, emission: 615 and 665 nm). The resulting FRET fluorescence value (665 nm/615 nm*10000) was converted and then calculated as a percentage of cAMP compared to the DMSO control value. IC50 values and curves were generated with GraphPad Prism software using log (inhibitor) versus response-variable slope (4 parameters), and the median of multiple experiments was taken as the experiment result.

Chains of the proteins cited; added tags and fusions are not shown. Lines headed by an entry give the natural chain unless they say otherwise; changes in a name come on top.
UniProt P35408: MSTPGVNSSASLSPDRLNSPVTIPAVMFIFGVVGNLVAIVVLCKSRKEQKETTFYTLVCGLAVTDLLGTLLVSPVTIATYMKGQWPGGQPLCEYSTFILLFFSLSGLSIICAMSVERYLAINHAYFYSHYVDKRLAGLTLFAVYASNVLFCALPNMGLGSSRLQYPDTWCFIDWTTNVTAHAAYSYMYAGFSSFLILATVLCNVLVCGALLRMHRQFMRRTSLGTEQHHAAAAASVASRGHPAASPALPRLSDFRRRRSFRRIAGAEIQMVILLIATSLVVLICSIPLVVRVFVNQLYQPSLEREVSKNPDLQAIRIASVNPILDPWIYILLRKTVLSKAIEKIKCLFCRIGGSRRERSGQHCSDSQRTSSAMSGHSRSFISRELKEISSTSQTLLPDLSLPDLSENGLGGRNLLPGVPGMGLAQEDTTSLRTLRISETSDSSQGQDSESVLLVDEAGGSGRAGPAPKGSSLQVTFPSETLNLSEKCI
UniProt P43116: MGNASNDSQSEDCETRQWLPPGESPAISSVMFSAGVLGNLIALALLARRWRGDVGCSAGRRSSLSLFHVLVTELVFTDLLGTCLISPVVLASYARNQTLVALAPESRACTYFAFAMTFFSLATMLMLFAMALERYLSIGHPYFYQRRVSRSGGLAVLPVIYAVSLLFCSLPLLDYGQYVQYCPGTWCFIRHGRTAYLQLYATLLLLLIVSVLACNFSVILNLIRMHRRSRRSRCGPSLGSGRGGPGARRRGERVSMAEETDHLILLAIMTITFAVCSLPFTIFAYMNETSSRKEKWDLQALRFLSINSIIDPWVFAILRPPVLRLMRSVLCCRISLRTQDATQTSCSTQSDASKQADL

[2] = target: T2, hEP2 (Homo sapiens, UniProt P43116); assay: hEP2 cAMP assay; type: cell-based; settings: summary in words of Tables 22 to 25
T2 construct: expressed in transfected cells; host or cells: HEK293
Procedure: Experimental Example 1.1: hEP2 cAMP Assay
as §1, with “hEP2” for “hEP4”, “hours. The” for “hours.”
as §2, with “1 μM)” for “100 PM)”, “400 pM” for “20 nM”, “(400 pM” for “(20 nM”, “12” for “18.5”
as §3, with “relative” for “compared”, “slopes” for “slope”

| SMILES | inhibitory activity on EP4 [1] | inhibitory activity on EP2 [2] |
| --- | --- | --- |
| O=C(NC1CC2(C1)CC(C(=O)O)C2)c1csc2ccn(Cc3ccc(C(F)(F)F)cc3)c12 (stereo not drawn) [Example 90, 6-(4-(4-(trifluoromethyl)benzyl)-4H-thieno[3,2-b]pyrrole-3-carboxamido)spiro[3.3]heptane-2-carboxylic acid] | excellent inhibitory activity | excellent inhibitory activity |
| COc1cccc(-c2ccc(Cn3ccc4scc(C(=O)NC5CC6(C5)CC(C(=O)O)C6)c43)cc2)c1 (stereo not drawn) [Example 85, 6-(4-((3′-methoxy-[1,1′-biphenyl]-4-yl)methyl)-4H-thieno[3,2-b]pyrrole-3-carboxamido)spiro[3.3]heptane-2-carboxylic acid] | excellent inhibitory activity | excellent inhibitory activity |
| Cc1sc(C)c(C(=O)NC2CC3(C2)CC(C(=O)O)C3)c1Cc1ccc(-c2ccccc2O)cc1 (stereo not drawn) [Example 25, 6-(4-((2′-hydroxy-[1,1′-biphenyl]-4-yl)methyl)-2,5-dimethylthiophene-3-carboxamido)spiro[3.3]heptane-2-carboxylic acid] | excellent inhibitory activity | excellent inhibitory activity |
| O=C(NC1CC2(C1)CC(C(=O)O)C2)c1csc2ccn(Cc3ccc(-c4ccccc4)nc3)c12 (stereo not drawn) [Example 105, 6-(4-((6-phenylpyridin-3-yl)methyl)-4H-thieno[3,2-b]pyrrole-3-carboxamido)spiro[3.3]heptane-2-carboxylic acid] | excellent inhibitory activity | excellent inhibitory activity |
| Cc1sc(C)c(C(=O)NC2CC3(C2)CC(C(=O)O)C3)c1Cc1ccc(C2CCNCC2)cc1 (stereo not drawn) [Example 68, 6-(2,5-dimethyl-4-(4-(piperidin-4-yl)benzyl)thiophene-3-carboxamido)spiro[3.3]heptane-2-carboxylic acid] | excellent inhibitory activity | excellent inhibitory activity |
| Cc1sc(C)c(C(=O)NC2CC3(C2)CC(C(=O)O)C3)c1Cc1ccc(-c2ccoc2)cc1 (stereo not drawn) [Example 33, 6-(4-(4-(furan-3-yl)benzyl)-2,5-dimethylthiophene-3-carboxamido)spiro[3.3]heptane-2-carboxylic acid] | excellent inhibitory activity | excellent inhibitory activity |
| O=C(NC1CC2(C1)CC(C(=O)O)C2)c1csc(-c2ccccc2)c1Cc1ccc(-c2ccccc2)cc1 (stereo not drawn) [Example 21, 6-(4-([1,1′-biphenyl]-4-ylmethyl)-5-phenylthiophene-3-carboxamido)spiro[3.3]heptane-2-carboxylic acid] | excellent inhibitory activity | excellent inhibitory activity |
| O=C(NC1CC2(C1)CC(C(=O)O)C2)c1csc2ccn(Cc3ccc(-c4ncccn4)cc3)c12 (stereo not drawn) [Example 93, 6-(4-(4-(pyrimidin-2-yl)benzyl)-4H-thieno[3,2-b]pyrrole-3-carboxamido)spiro[3.3]heptane-2-carboxylic acid] | excellent inhibitory activity | excellent inhibitory activity |
| CCOc1cc(F)cc(-c2ccc(Cc3c(C)sc(C)c3C(=O)NC3CC4(C3)CC(C(=O)O)C4)cc2)c1 (stereo not drawn) [Example 45, 6-(4-((3′-ethoxy-5′-fluoro-[1,1′-biphenyl]-4-yl)methyl)-2,5-dimethylthiophene-3-carboxamido)spiro[3.3]heptane-2-carboxylic acid] | excellent inhibitory activity | excellent inhibitory activity |
| O=C(NC1CC2(C1)CC(C(=O)O)C2)c1csc2ccn(CC#Cc3ccccc3)c12 (stereo not drawn) [Example 98, 6-(2-4-(3-phenylprop-2-yn-1-yl)-4H-thieno[3,2-b]pyrrole-3-carboxamido)spiro[3.3]heptane-2-carboxylic acid] | excellent inhibitory activity | excellent inhibitory activity |
| CSc1cc(F)cc(-c2ccc(Cc3c(C)sc(C)c3C(=O)NC3CC4(C3)CC(C(=O)O)C4)cc2)c1 (stereo not drawn) [Example 55, 6-(4-((3′-fluoro-5′-(methylthio)-[1,1′-biphenyl]-4-yl)methyl)-2,5-dimethylthiophene-3-carboxamido)spiro[3.3]heptane-2-carboxylic acid] | excellent inhibitory activity | excellent inhibitory activity |
| Cc1scc(Cc2ccc(-c3ccccc3)cc2)c1C(=O)NC1CC2(C1)CC(C(=O)O)C2 (stereo not drawn) [Example 14, 6-(4-([1,1′-biphenyl]-4-ylmethyl)-2-methylthiophene-3-carboxamido)spiro[3.3]heptane-2-carboxylic acid] | excellent inhibitory activity | excellent inhibitory activity |
| Cc1sc(C)c(N(C)c2ccc(-c3ccccc3)cc2)c1C(=O)NC1CC2(C1)CC(C(=O)O)C2 (stereo not drawn) [Example 76, 6-(4-([1,1′-biphenyl]-4-yl(methyl)amino)-2,5-dimethylthiophene-3-carboxamido)spiro[3.3]heptane-2-carboxylic acid] | excellent inhibitory activity | excellent inhibitory activity |
| COc1cc(F)cc(-c2ccc(Cc3ccsc3C(=O)NC3CC4(C3)CC(C(=O)O)C4)cc2)c1 (stereo not drawn) [Example 19, 6-(3-((3′-fluoro-5′-methoxy-[1,1′-biphenyl]-4-yl)methyl)thiophene-2-carboxamido)spiro[3.3]heptane-2-carboxylic acid] | excellent inhibitory activity | excellent inhibitory activity |
| Cc1ccc(-c2ccc(Cc3c(C)sc(C)c3C(=O)NC3CC4(C3)CC(C(=O)O)C4)cc2)cc1C (stereo not drawn) [Example 28, 6-(4-((3′,4′-dimethyl-[1,1′-biphenyl]-4-yl)methyl)-2,5-dimethylthiophene-3-carboxamido)spiro[3.3]heptane-2-carboxylic acid] | excellent inhibitory activity | excellent inhibitory activity |
| Cc1sc(C)c(C(=O)NC2CC3(C2)CC(C(=O)O)C3)c1Cc1ccc(Cl)cc1 (stereo not drawn) [Example 23, 6-(4-(4-chlorobenzyl)-2,5-dimethylthiophene-3-carboxamido)spiro[3.3]heptane-2-carboxylic acid] | excellent inhibitory activity | excellent inhibitory activity |
| COc1cc(C#N)cc(-c2ccc(Cc3c(C)sc(C)c3C(=O)NC3CC4(C3)CC(C(=O)O)C4)cc2)c1 (stereo not drawn) [Example 41, 6-(4-((3′-cyano-5′-methoxy-[1,1′-biphenyl]-4-yl)methyl)-2,5-dimethylthiophene-3-carboxamido)spiro[3.3]heptane-2-carboxylic acid] | excellent inhibitory activity | excellent inhibitory activity |
| COc1cc(C(N)=O)cc(-c2ccc(Cc3c(C)sc(C)c3C(=O)NC3CC4(C3)CC(C(=O)O)C4)cc2)c1 (stereo not drawn) [Example 58, 6-(4-((3′-carbamoyl-5′-methoxy-[1,1′-biphenyl]-4-yl)methyl)-2,5-dimethylthiophene-3-carboxamido)spiro[3.3]heptane-2-carboxylic acid] | excellent inhibitory activity | excellent inhibitory activity |
